# Data taken from patent US20250066503A1, “CELL INJURY INDUCING THERAPEUTIC DRUG FOR USE IN CANCER THERAPY” (CHUGAI SEIYAKU KABUSHIKI KAISHA, priority 2016, published 2025).
# Numbering of substitutions follows the chain as printed.
# B1: antibody-7: anti-human CD3ε chain and anti-human GPC3 bispecific antibody (antibody)
# heavy: EVQLVETGGSLVQPGKSLKLTCATSGFTFSNAWMHWVRQSPEKQLEWVAQIKAKSNNYATYYAESVKGRFTISRDDSKSNIYLQMNSLKEEDTAVYYCRYVHYGAYYGVDAWGQGTSVTVSSASTKGPSVFPLAPSSKSTSGGTAALGCLVKDYFPEPVTVSWNSGALTSGVHTFPAVLQSSGLYSLSSVVTVPSSSLGTQTYICNVNHKPSNTKVDKKVEPKSCDKTHTCPPCPAPEAAGGPSVFLFPPKPKDTLMISRTPEVTCVVVDVSHEDPEVKFNWYVDGVEVHNAKTKPREEQYASTYRVVSVLTVLHQDWLNGKEYKCKVSNKALPAPIEKTISKAKGQPREPQVYTLPPSRCELTKNQVSLSCAVKGFYPSDIAVEWESNGQPENNYKTTPPVLDSDGSFFLVSKLTVDKSRWQQGNVFSCSVMHEALHNHYTQKSLSLSPDYKDDDDK
# light: DVVMTQTPVSMSVSLGGQVSISCRSSQSLVHNNGNTYVSWYIQKPSQSPQLLIYKVSNRFSGISDRFSGSGSGTDFTLKISRVEPDDLGVYYCGQGTQDPYTFGAGTKLELKRTVAAPSVFIFPPSDEQLKSGTASVVCLLNNFYPREAKVQWKVDNALQSGNSQESVTEQDSKDSTYSLSSTLTLSKADYEKHKVYACEVTHQGLSSPVTKSFNRGEC
# chain 1: DIVMTQSPLSLPVTPGEPASISCRSSQSLVHSNRNTYLHWYQQKPGQAPRLLIYKVSNRFSGVPDRFSGSGSGTDFTLKISRVEAEDVGVYYCGQGTQVPYTFGQGTKLEIKSSASTKGPSVFPLAPSSKSTSGGTAALGCLVKDYFPEPVTVSWNSGALTSGVHTFPAVLQSSGLYSLSSVVTVPSSSLGTQTYICNVNHKPSNTKVDKKVEPKSCDKTHTCPPCPAPEAAGGPSVFLFPPKPKDTLMISRTPEVTCVVVDVSHEDPEVKFNWYVDGVEVHNAKTKPREEQYASTYRVVSVLTVLHQDWLNGKEYKCKVSNKALPAPIEKTISKAKGQPREPQVCTLPPSRDELTKNQVSLWCLVKGFYPSDIAVEWESNGQPENNYKTTPPVLDSDGSFFLYSKLTVDKSRWQQGNVFSCSVMHEALHNHYTQKSLSLSPHHHHHHHH
# chain 2: QVQLVQSGAEVKKPGASVKVSCKASGYTFTDYEMHWIRQPPGQGLEWIGAIDGKTPDTAYSQKFKGRVTLTADKSTSTAYMELSSLTSEDTAVYYCTRFYSYTYWGQGTLVTVSSASVAAPSVFIFPPSDEQLKSGTASVVCLLNNFYPREAKVQWKVDNALQSGNSQESVTEQDSKDSTYSLSSTLTLSKADYEKHKVYACEVTHQGLSSPVTKSFNRGEC
# B2: antibody-32: optimized anti-human CD3ε chain and anti-human GPC3 bispecific antibody (antibody)
# heavy 1: QVQLVESGGGVVQPGGSLRLSCAASGFTFSNAWMHWVRQAPGKGLEWVAQIKDKSQNYATYYAESVKGRFTISRADSKNSIYLQMNSLKTEDTAVYYCRYVHYAAGYGVDIWGQGTTVTVSSASTKGPSVFPLAPCSRSTSESTAALGCLVKDYFPEPVTVSWNSGALTSGVHTFPAVLQSSGLYSLSSVVTVPSSSLGTKTYTCNVDHKPSNTKVDKRVESKYGPPCPPCPAPEFRGGPKVFLFPPKPKDTLMISRTPEVTCVVVDVSQEDPEVQFNWYVDGVEVHNAKTKPREEQFASTYRVVSVLTVLHQDWLNGKEYKCKVSNKGLPSSIEKTISKAKGQPREPQVYTLPPSQKEMTKNQVSLTCLVKGFYPSDIAVEWESNGQPENNYKTTPPVLDSDGSFFLYSKLTVDKSRWQEGNVFSCSVMHEALHNRYTQKSLSLSP
# heavy 2: QVQLVQSGAEVKKPGASVTVSCKASGYTFTDYEMHWIRQPPGEGLEWIGAIDGPTPDTAYSEKFKGRVTLTADKSTSTAYMELSSLTSEDTAVYYCTRFYSYTYWGQGTLVTVSSASTKGPSVFPLAPCSRSTSESTAALGCLVKDYFPEPVTVSWNSGALTSGVHTFPAVLQSSGLYSLSSVVTVPSSSLGTQTYTCNVDHKPSNTKVDKRVESKYGPPCPPCPAPEFRGGPKVFLFPPKPKDTLMISRTPEVTCVVVDVSQEDPEVQFNWYVDGVEVHNAKTKPREEQFASTYRVVSVLTVLHQDWLNGKEYKCKVSNKGLPSSIEKTISKAKGQPREPQVYTLPPSQEEMTKNQVSLTCLVKGFYPSDIAVEWESNGQPENNYKTTPPVLDSDGSFFLYSKLTVDKSRWQEGNVFSCSVMHEALHNHYTQESLSLSP
# light: DIVMTQSPLSLPVTPGEPASISCRSSQPLVHSNRNTYLHWYQQKPGQAPRLLIYKVSNRFSGVPDRFSGSGSGTDFTLKISRVEAEDVGVYYCGQGTQVPYTFGQGTKLEIKRTVAAPSVFIFPPSDEQLKSGTASVVCLLNNFYPREAKVQWKVDNALQSGNSQESVTEQDSKDSTYSLSSTLTLSKADYEKHKVYACEVTHQGLSSPVTKSFNRGEC
# B3: antibody-31: optimized anti-human CD3ε chain and anti-human GPC3 bispecific antibody (antibody)
# heavy 1: B2 heavy 1
# heavy 2: B2 heavy 2 with I37V, P40A, I48M, P54E
# light: B2 light
# B4: antibody-29: optimized anti-human CD3ε chain and anti-human GPC3 bispecific antibody (antibody)
# heavy 1: B2 heavy 1 with V11L, G16R, A75D, I81L, I111A
# heavy 2: B2 heavy 2 with I37V, P40A, I48M, P54E
# light: B2 light with L29P
# B5: antibody-13: optimized anti-human CD3ε chain and anti-human GPC3 bispecific antibody (antibody)
# heavy 1: B2 heavy 1 with V11L, G16R, A104S, G106S, I111A
# heavy 2: B2 heavy 2 with T19K, E43Q, P54K, E62Q
# light: B2 light with P28S
# B6: antibody-14: optimized anti-human CD3ε chain and anti-human GPC3 bispecific antibody (antibody)
# heavy 1: B2 heavy 1 with V11L, G16R, A104S, G106S, I111A
# heavy 2: B2 heavy 2 with T19K, E43Q, P54K, E62Q
# light: B2 light with L29P
# B7: antibody-15: optimized anti-human CD3ε chain and anti-human GPC3 bispecific antibody (antibody)
# heavy 1: B2 heavy 1 with V11L, G16R, A104S, G106S, I111A
# heavy 2: B2 heavy 2 with T19K, E43Q, P54K, E62Q
# light: B2 light with P28S, L29P, L38I
# B8: antibody-30: optimized anti-human CD3ε chain and anti-human GPC3 bispecific antibody (antibody)
# heavy 1: B2 heavy 1 with V11L, G16R, A75D, I81L, I111A
# heavy 2: B2 heavy 2 with I37V, P40A, I48M, P54E
# light: B2 light
# B9: antibody-35: optimized anti-human CD3ε chain and anti-human GPC3 bispecific antibody (antibody)
# heavy 1: B2 heavy 1 with V11L, G16R, Y62V, A75D, I81L, I111A
# heavy 2: B2 heavy 2
# light: B2 light
# B10: antibody-27: optimized anti-human CD3ε chain and anti-human GPC3 bispecific antibody (antibody)
# heavy 1: B2 heavy 1 with V11L, G16R, A75D, I81L, G106S, I111A
# heavy 2: B2 heavy 2 with P54E
# light: B2 light with P28S, L29P, L38I, H39Q, G94Y
# Tested on: extracellular matrix (BD Matrigel)
# Assay: Assessment of the ECM-binding ability (ECL on BD Matrigel)
# Settings: fluorescence intensity relative to standard antibody MRAH-G1d/MRAL-k0
row,Molecule,ECM binding ratio (standard = 1)
1,B1,1.4
2,B2,1.3
3,B3,1.2
4,B4,1.1
5,B5,0.8
6,B6,0.8
7,B7,0.8
8,B8,0.7
9,B9,0.7
10,B10,0.6
